Consider seven molecules from PubChem BioAssay AID188 (DTP/NCI, 2004).

For this assay, the system named is CD2F1 mice, nontumored, toxicity/survival. The assay is described as follows: NCI In Vivo Anticancer Drug Screen. Data for tumor model Nontumored Animals (Toxicity Test) in CD2F1 (CDF1) mice.
Where [1] appears, read: dose: 10.0 mg/kg/injection, schedule: Q01DX001 (ip), vehicle: other.
The mark [2] stands for this setting: dose: 100.0 mg/kg/injection, schedule: Q01DX001 (ip), vehicle: other.

Shown are survivors of the treated group in tumour-free mice. Survivors were counted at the toxicity check, usually on the fifth day, unless a day is given; later deaths do not show. Schedules are NCI's codes, taken here to give the interval after Q, in days (D) or hours (H), and the number of doses after X. Some doses were run more than once; their values stand side by side, smallest first.

As for `Nc1nc(N)nc(CCC(Cl)(Cl)Cl)n1`, the survivor count (dose: 1.0 mg/kg/injection, schedule: Q01DX001 (ip), vehicle: distilled water + Tween-80) was 2 of 2; the survivor count (dose: 10.0 mg/kg/injection, schedule: Q01DX001 (ip), vehicle: distilled water + Tween-80) is 2 of 2; the survivor count (dose: 100.0 mg/kg/injection, schedule: Q01DX001 (ip), vehicle: distilled water + Tween-80) is reported as 2 of 2.
Regarding `Oc1cc2c3c(c1)-c1c(ccc(O)c1O)CC3NCC2` (configuration not stated), the survivor count (dose: 1.0 mg/kg/injection, schedule: Q01DX001 (ip), vehicle: DMSO) is listed as 2 of 2; the survivor count (dose: 10.0 mg/kg/injection, schedule: Q01DX001 (ip), vehicle: DMSO) was 2 of 2; the survivor count (dose: 100.0 mg/kg/injection, schedule: Q01DX001 (ip), vehicle: DMSO) is 1 of 2.
Regarding `Nc1ncnc2c1ccn2C1OC2COP(=O)(O)OC2C1O` (configuration not stated), the survivor count (dose: 0.13 mg/kg/injection, schedule: Q03HX024 (ip), vehicle: saline) is listed as 8 of 8; the survivor count (dose: 0.25 mg/kg/injection, schedule: Q03HX024 (ip), vehicle: saline) is recorded as 8 of 8; the survivor count (dose: 0.5 mg/kg/injection, schedule: Q03HX024 (ip), vehicle: saline) is recorded as 8 of 8; the survivor count (dose: 1.0 mg/kg/injection, schedule: Q01DX009 (ip), vehicle: saline) is reported as 8 of 8; the survivor count (dose: 1.0 mg/kg/injection, schedule: Q03HX024 (ip), vehicle: saline) was 8 of 8; the survivor count (dose: 1.0 mg/kg/injection, schedule: Q04DX003 (ip), vehicle: saline) is 8 of 8. The survivor count by setting is: (dose: 2.0 mg/kg/injection, schedule: Q01DX001 (ip), vehicle: saline) 8 of 8; (dose: 2.0 mg/kg/injection, schedule: Q01DX009 (ip), vehicle: saline) 8 of 8; (dose: 2.0 mg/kg/injection, schedule: Q04DX003 (ip), vehicle: saline) 8 of 8; (dose: 4.0 mg/kg/injection, schedule: Q01DX001 (ip), vehicle: saline) 8 of 8; (dose: 4.0 mg/kg/injection, schedule: Q01DX009 (ip), vehicle: saline) 8 of 8; (dose: 4.0 mg/kg/injection, schedule: Q04DX003 (ip), vehicle: saline) 8 of 8. The survivor count is listed as 8 of 8 (dose: 8.0 mg/kg/injection, schedule: Q01DX001 (ip), vehicle: saline); 8 of 8 (dose: 8.0 mg/kg/injection, schedule: Q01DX009 (ip), vehicle: saline); 8 of 8 (dose: 8.0 mg/kg/injection, schedule: Q04DX003 (ip), vehicle: saline); 8 of 8 (dose: 16.0 mg/kg/injection, schedule: Q01DX001 (ip), vehicle: saline).
For `CCCCCNC(=O)CCC(NC(=O)c1ccc(N(C)Cc2cnc3nc(N)nc(N)c3n2)cc1)C(=O)O` (configuration not stated), the survivor count runs as follows: (dose: 88.0 mg/kg/injection, schedule: Q01DX009 (ip), vehicle: sodium bicarbonate) 6 of 6; (dose: 134.0 mg/kg/injection, schedule: Q01DX009 (ip), vehicle: sodium bicarbonate) 6 of 6.
On to `CN(C)N=Nc1ccc(C(F)(F)F)cc1`, for which the survivor count by setting is: (dose: 118.0 mg/kg/injection, schedule: Q01DX009 (ip), vehicle: Klucel (hydroxypropylcellulose) (HPC)) 9 of 10; (dose: 177.0 mg/kg/injection, schedule: Q01DX009 (ip), vehicle: Klucel (hydroxypropylcellulose) (HPC)) 10 of 10; (dose: 266.0 mg/kg/injection, schedule: Q01DX009 (ip), vehicle: Klucel (hydroxypropylcellulose) (HPC)) 6 of 10; (dose: 400.0 mg/kg/injection, schedule: Q01DX009 (ip), vehicle: Klucel (hydroxypropylcellulose) (HPC)) 1 of 10; (dose: 600.0 mg/kg/injection, schedule: Q01DX009 (ip), vehicle: Klucel (hydroxypropylcellulose) (HPC)) 0 of 10.
Regarding `CC(=O)Nc1nc(Br)c2ccccc2c1-c1ccc(N(CCOS(C)(=O)=O)CCOS(C)(=O)=O)cc1`, the survivor count (dose: 1.0 mg/kg/injection, schedule: Q01DX001 (ip), vehicle: other) was 2 of 2; the survivor count under setting [1] was 2 of 2; the survivor count under setting [2] is 2 of 2.
In the case of `CC1CCC(NC(=O)N(CCCl)N=O)CC1` (configuration not stated), the survivor count by setting is: (dose: 3.0 mg/kg/injection, schedule: Q04DX002 (ip), vehicle: other) 10 of 10; (dose: 5.0 mg/kg/injection, schedule: Q01DX001 (ip), vehicle: other) 4 of 4; (dose: 5.8 mg/kg/injection, schedule: Q04DX002 (ip), vehicle: saline + alcohol) 4 of 4; (dose: 6.0 mg/kg/injection, schedule: Q04DX002 (ip), vehicle: other) 10 of 10; (dose: 9.6 mg/kg/injection, schedule: Q04DX002 (ip), vehicle: saline + alcohol) 4 of 4; under setting [1], 4 of 4. In addition, the survivor count (dose: 10.9 mg/kg/injection, schedule: Q01DX001 (oral), vehicle: Klucel (hydroxypropylcellulose) (HPC)) is 10 of 10; the survivor count (dose: 10.9 mg/kg/injection, schedule: Q01DX001 (oral), vehicle: clinical formulation) is reported as 9 of 10; the survivor count (dose: 12.0 mg/kg/injection, schedule: Q04DX002 (ip), vehicle: other) was 10 of 10; the survivor count (dose: 16.0 mg/kg/injection, schedule: Q04DX002 (ip), vehicle: saline + alcohol) was 4 of 4; the survivor count (dose: 16.5 mg/kg/injection, schedule: Q01DX001 (oral), vehicle: Klucel (hydroxypropylcellulose) (HPC)) was 10 of 10; the survivor count (dose: 16.5 mg/kg/injection, schedule: Q01DX001 (oral), vehicle: clinical formulation) is reported as 9 of 10. Further, the survivor count is given as 4 of 4 (dose: 20.0 mg/kg/injection, schedule: Q01DX001 (ip), vehicle: other); 4 of 4 (dose: 24.0 mg/kg/injection, schedule: Q01DX001 (ip), vehicle: other); 10 of 10 (dose: 24.7 mg/kg/injection, schedule: Q01DX001 (oral), vehicle: Klucel (hydroxypropylcellulose) (HPC)); 10 of 10 (dose: 24.7 mg/kg/injection, schedule: Q01DX001 (oral), vehicle: clinical formulation); 4 of 4 (dose: 26.7 mg/kg/injection, schedule: Q04DX002 (ip), vehicle: saline + alcohol); 10 of 10 (dose: 27.0 mg/kg/injection, schedule: Q01DX001 (ip), vehicle: saline with Tween-80). Besides, the survivor count by setting is: (dose: 36.0 mg/kg/injection, schedule: Q01DX001 (ip), vehicle: other) 4 of 4; (dose: 37.0 mg/kg/injection, schedule: Q01DX001 (oral), vehicle: Klucel (hydroxypropylcellulose) (HPC)) 9 of 10; (dose: 37.0 mg/kg/injection, schedule: Q01DX001 (oral), vehicle: clinical formulation) 8 of 10; (dose: 40.0 mg/kg/injection, schedule: Q01DX001 (ip), vehicle: other) 4 of 4; (dose: 40.0 mg/kg/injection, schedule: Q01DX001 (ip), vehicle: saline with Tween-80) 10 of 10 and 4 of 4; (dose: 50.0 mg/kg/injection, schedule: Q01DX001 (ip), vehicle: saline with Tween-80) 10 of 10. Besides, the survivor count (dose: 55.5 mg/kg/injection, schedule: Q01DX001 (oral), vehicle: Klucel (hydroxypropylcellulose) (HPC)) is given as 6 of 10; the survivor count (dose: 55.5 mg/kg/injection, schedule: Q01DX001 (oral), vehicle: clinical formulation) was 3 of 10; the survivor count (dose: 60.0 mg/kg/injection, schedule: Q01DX001 (ip), vehicle: other) is 4 of 4; the survivor count (dose: 66.7 mg/kg/injection, schedule: Q01DX001 (ip), vehicle: saline with Tween-80) is 4 of 4; the survivor count (dose: 83.3 mg/kg/injection, schedule: Q01DX001 (oral), vehicle: Klucel (hydroxypropylcellulose) (HPC)) is 0 of 10; the survivor count (dose: 83.3 mg/kg/injection, schedule: Q01DX001 (oral), vehicle: clinical formulation) is 1 of 10. Further, the survivor count by setting is: under setting [2], 4 of 4; (dose: 125.0 mg/kg/injection, schedule: Q01DX001 (oral), vehicle: Klucel (hydroxypropylcellulose) (HPC)) 0 of 10; (dose: 125.0 mg/kg/injection, schedule: Q01DX001 (oral), vehicle: clinical formulation) 0 of 10; (dose: 187.5 mg/kg/injection, schedule: Q01DX001 (oral), vehicle: Klucel (hydroxypropylcellulose) (HPC)) 0 of 10; (dose: 187.5 mg/kg/injection, schedule: Q01DX001 (oral), vehicle: clinical formulation) 0 of 10.
